Data as given in PubChem BioAssay AID686943 (Drosophila RNAi Screening Center, 2013).
Aim: 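Fly genes whose loss alters ERK activation after insulin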 (primary screen). System: Drosophila S2R+ haemocyte-like cells expressing YFP-tagged ERK (Rolled). Reagent: long dsRNA against Drosophila genes. Treatment: insulin stimulation versus unstimulated cells; dose and duration not given. Measurement: 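Per-plate z-scores of phospho-ERK immunostaining normalised to YFP-tagged ERK, measured with and without insulin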. Direction: replicate 1, z-score of dpERK with insulin and replicate 2, z-score of dpERK with insulin: higher = more active ERK per ERK-YFP after insulin; replicate 1, z-score of dpERK under basal conditions: higher = more basal active ERK per ERK-YFP.
In all, the deposit lists about 23,000 reagents; below is a random part of those with a known target gene and a result. 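Extra replicates exist only for a retested subset of genes; insulin dose and duration not given; both raised and lowered dpERK matter.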 Names joined by + are all predicted targets of the reagent. Not all columns of the deposit are shown. No sequences are given here. The record does not give: the amount of reagent, the time to read-out.

target,dsRNA,"replicate 1, z-score of dpERK with insulin","replicate 2, z-score of dpERK with insulin","replicate 1, z-score of dpERK under basal conditions"
CG10597,DRSC19357,0.06,0.82,1.26
BBS9 (Bardet-Biedl syndrome 9),DRSC04257,0.72,-2.15,-0.8
vsg (visgun),DRSC10219,-0.71,0.45,-0.05
CG12863,DRSC06203,0.96,0.27,0.22
CG3739,DRSC15510,-0.06,-0.07,0.05
vih (vihar),DRSC09778,-2.38,-1.92,1.05
nerfin-1 (nervous fingers 1),DRSC08729,-0.69,1.28,0.64
"Caf1-105 (Chromatin assembly factor 1, p105 subunit)",DRSC06209,-0.72,-0.39,-1.41
Obp83g (Odorant-binding protein 83g),DRSC12269,0.41,-0.36,-1.1
NLaz (Neural Lazarillo),DRSC21521,0.22,0.17,-0.13
ninaD (neither inactivation nor afterpotential D),DRSC02886,-0.17,-0.29,0.05
CG33307,DRSC01349,1.23,2.42,1.25
CG32198,DRSC09553,-0.45,-0.57,0.22
CG5863,DRSC15898,-0.79,-0.02,0.13
Ugt304A1 (UDP-glycosyltransferase family 304 member A1),DRSC15127,0.06,0.14,-0.83
CG4218,DRSC01939,-0.43,-0.14,-0.65
l(2)k09022 (lethal (2) k09022),DRSC02108,-0.52,-1.57,-0.15
lncRNA:CR30121 (long non-coding RNA:CR30121),DRSC21481,0.37,-1.26,-0.7
Ilp8 (Insulin-like peptide 8),DRSC10076,-1.92,-0.05,-0.02
hob (hobbit),DRSC08426,-0.01,-0.36,0.13
CG8850,DRSC07287,-0.14,-0.91,-0.04
Rlip (Ral interacting protein),DRSC16828,-0.3,0.13,0.38
Flad1 (Flavin adenine dinucleotide synthetase 1),DRSC19898,0.64,0.39,-0.32
can (cannonball),DRSC10664,-0.04,-0.7,0.41
bru2 (bruno 2),DRSC01246,-0.64,-1.55,0.26
bru2 (bruno 2),DRSC01247,-6.47,-3.18,-2.2
bru2 (bruno 2),DRSC01249,0.9,0.18,0.45
bru2 (bruno 2),DRSC01250,-0.93,0.36,-0.49
bru2 (bruno 2),DRSC02557,-0.54,-1.52,-1.99
Iyd (Iodotyrosine deiodinase),DRSC10614,-0.33,-0.24,-0.59
Iyd (Iodotyrosine deiodinase),DRSC10615,0.1,0.53,-1.09
CG15167,DRSC02468,0.16,0.12,-1.61
Ythdf (YTH N6-methyladenosine RNA binding protein),DRSC16036,0.5,0.05,-0.21
Ythdf (YTH N6-methyladenosine RNA binding protein),DRSC16037,0.02,-0.21,0.72
FoxK (Forkhead box K),DRSC09859,0.46,-0.54,-0.48
BomBc2 (Bomanin Bicipital 2),DRSC06502,1.04,2.24,0.56
CG42540,DRSC08327,-0.93,-1.35,-1.35
CG42540,DRSC08328,-1.7,-0.6,-0.67
CG42540,DRSC08593,-2.34,-3.53,-1.25
CG14330,DRSC14809,0.81,0.04,1.06
Rassf (Ras association family member),DRSC15612,-0.48,-0.8,-0.4
CG17931 + CG42446,DRSC15293,-0.08,0.18,-0.28
CG31031 (retired record),DRSC13964,-0.41,-0.43,-0.04
CG14252,DRSC14747,-1.2,-0.25,-0.22
nau (nautilus),DRSC17011,0.2,-0.1,1.26
CG7884,DRSC20065,0.43,1.09,0.03
amon (amontillado),DRSC13784,-0.61,-0.14,-0.16
amon (amontillado),DRSC16900,0.66,0.01,0.92
Wnt4 (Wnt oncogene analog 4),DRSC00976,-0.88,-1.91,0.09
Wnt4 (Wnt oncogene analog 4),DRSC03477,-0.17,-0.11,1.06
CG42570,DRSC09391,0.04,-0.5,0.04
I-2 (Inhibitor-2),DRSC11194,-1.24,-2.84,-1.35
CG5171,DRSC02823,0.9,1.12,-0.3
Slik (Sterile20-like kinase),DRSC04471,-0.36,-0.37,0.26
salt (salty dog),DRSC15427,0.51,0.99,-0.04
Dfd (Deformed),DRSC12593,0.99,1.49,-0.17
Kdm4B (Lysine demethylase 4B),DRSC06862,1.05,1.09,1.71

Not a retest: 5 of the entries above.
target,dsRNA,"replicate 1, z-score of dpERK with insulin","replicate 2, z-score of dpERK with insulin","replicate 1, z-score of dpERK under basal conditions"
Iyd (Iodotyrosine deiodinase),DRSC10615,0.1,0.53,-1.09
CG15167,DRSC02468,0.16,0.12,-1.61
Ythdf (YTH N6-methyladenosine RNA binding protein),DRSC16036,0.5,0.05,-0.21
Ythdf (YTH N6-methyladenosine RNA binding protein),DRSC16037,0.02,-0.21,0.72
FoxK (Forkhead box K),DRSC09859,0.46,-0.54,-0.48
